## Percent effect of library compounds

Mtb glucose medium: 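Phenotypic screen: M. tuberculosis growth, glucose 7H9 medium, 3 days; the read-out is not stated. Tested at 50 µM. Direction is inferred from retests: higher values go with more growth inhibition. Size under these conditions: about 69,000 compounds, about 760 of them at 50% or above in at least one test.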
Mtb cholesterol medium: 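Phenotypic screen: M. tuberculosis growth, cholesterol and DPPC medium, 4 days; the read-out is not stated. Compounds at 50 µM. Higher reads as more growth inhibition (inferred: compounds with an IC50 in retests scored well above the rest). Size under these conditions: about 69,000 compounds, about 370 of them at 50% or above in at least one test.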

Values are the deposited “Percent Effect”, in %.
The record does not define 0% and 100%; most values in the screen are far below 50% and negative numbers occur (in some assays of this library far below -100).
The compounds are a random part of those screened.
Two or more numbers in one place are separate tests of the same structure; such repeats can differ widely.

* O=C(O)C(F)(F)F.O=C(O)C(F)(F)F.[H][C@@]12CCN(Cc3cccs3)C[C@@]1([H])O[C@H](C(=O)Nc1cccnc1C)C2 | Mtb glucose medium: 5.522%; Mtb cholesterol medium: -17.34%
* CC(C)c1nsc(N2CCCOCC2)n1 | Mtb glucose medium: -9.143%; Mtb cholesterol medium: -0.3175%
* Cc1nnc2n1CCN(C(=O)c1cn(-c3ccccc3)nn1)C2 | Mtb glucose medium: -14.59%; Mtb cholesterol medium: -4.325%
* COCCNS(=O)(=O)c1c(C)sc2ccccc12 | Mtb glucose medium: 46.64%; Mtb cholesterol medium: 11.85%
* Cc1cc(C)c(CNC(=O)N2CCCC2c2cccn2C)c(=O)[nH]1 (centres undefined) | Mtb glucose medium: 6.964%; Mtb cholesterol medium: 2.685%
* O=C(NCC1CCOC1)c1ccc(OCC(F)(F)F)nc1 (centres undefined) | Mtb glucose medium: -16.95%; Mtb cholesterol medium: -1.299%
* Cn1cccc1C(=O)NCc1cnc2n1CCN(C(=O)N1CCCC1)C2 | Mtb glucose medium: 29.02%; Mtb cholesterol medium: 19.85%
* Cc1ccc(CN2CC(C(=O)NC(C)C)C3(CCOCC3)C2)s1.O=C(O)C(F)(F)F (centres undefined) | Mtb glucose medium: 3.553% and -0.8097%; Mtb cholesterol medium: -7.889%
* CCNCCC(Cc1ccccc1)c1ccco1 (centres undefined) | Mtb glucose medium: 29.91% and 36.18%; Mtb cholesterol medium: 3.806%
* [H][C@]12CC[C@]([H])(CN(S(C)(=O)=O)C1)N(C(=O)CCn1cnc3ccccc31)C2 | Mtb glucose medium: -54.75%; Mtb cholesterol medium: -5.93%
* COCCC1(CO)CCCN(Cc2ccncc2)C1 (centres undefined) | Mtb glucose medium: -0.4436% and -16.53%; Mtb cholesterol medium: -3.14% and -7.934%
* CC(C)(NS(C)(=O)=O)c1nc(-c2cccc(Cl)c2)no1 | Mtb glucose medium: -0.7064%; Mtb cholesterol medium: -0.8399%
* Nc1cc2c(nn1)CCN(C(=O)c1csc(-c3cccs3)n1)C2 | Mtb glucose medium: -1.056%; Mtb cholesterol medium: 14.78%
* CCOC(=O)C1CCN(C(=O)c2cc(OCC)c3ccoc3c2)CC1 | Mtb glucose medium: -17.96%; Mtb cholesterol medium: -3.288%
* CCN(Cc1cscn1)CC1(C)Cc2c(N)nc(N)nc2O1 (centres undefined) | Mtb glucose medium: -4.735%; Mtb cholesterol medium: -28.55% and -1.125%
* Cc1ccc(F)c(S(=O)(=O)NCc2cccc(N3CCOC3=O)c2)c1 | Mtb glucose medium: 19.6%; Mtb cholesterol medium: 10.2%
* COCC(C)(NC(=O)c1cc(Cl)c(-n2cccc2)cc1OC)C(N)=O (centres undefined) | Mtb glucose medium: 17.25%; Mtb cholesterol medium: 7.702%
* CNC(=O)CS(=O)(=O)C1CCN(S(=O)(=O)C2CC2)CC1 | Mtb glucose medium: -6.758% and 5.841%; Mtb cholesterol medium: -3.54%
* CCCN(CC1CC1)C(=O)CN1CCCC1c1cnn(C)c1 (centres undefined) | Mtb glucose medium: -1.954%; Mtb cholesterol medium: 2.419% and 6.365%
* Cc1ccc(NC(=O)N2CCN(Cc3ccccn3)CC2)cc1Cl | Mtb glucose medium: 23.82%; Mtb cholesterol medium: 3.234%
* Cc1nn(CC(C)C)c(N(C)C)c1CNCc1cccnc1N(C)C | Mtb glucose medium: 2.279%; Mtb cholesterol medium: -5.761%
* O=C(O)C(F)(F)F.[H][C@@]12OCCN(C(=O)CC3CC3)[C@@]1([H])CC[C@H]2OCCCn1cccn1 | Mtb glucose medium: 5.577%; Mtb cholesterol medium: -22.27%
* COCCN1CCC2(COCCN(Cc3ccc4c(c3)OCO4)C2)C1.O=C(O)C(F)(F)F.O=C(O)C(F)(F)F (centres undefined) | Mtb glucose medium: 6.085% and -5.986%; Mtb cholesterol medium: 1.975%
* CC(C)CC(NC(=O)c1ccco1)c1nnc2ccccn12 (centres undefined) | Mtb glucose medium: -12.17%; Mtb cholesterol medium: -12.34%
* CN(C)C(=O)c1cccc(Nc2cnn(C)c2)c1 | Mtb glucose medium: -18.23%; Mtb cholesterol medium: 1.327% and 5.221%
* CCCn1nc2c(cc1=O)CN(CCS(C)(=O)=O)CC2 | Mtb glucose medium: 19.39%; Mtb cholesterol medium: -8.299%
* FC(F)(F)Cn1ccnc1CN1CCOC(Cn2cccn2)C1 (centres undefined) | Mtb glucose medium: -17.38%; Mtb cholesterol medium: -12.22%

Once more, the final 3:

Compound	Mtb glucose medium	Mtb cholesterol medium
CN(C)C(=O)c1cccc(Nc2cnn(C)c2)c1	-18.23	1.327 and 5.221
CCCn1nc2c(cc1=O)CN(CCS(C)(=O)=O)CC2	19.39	-8.299
FC(F)(F)Cn1ccnc1CN1CCOC(Cn2cccn2)C1 (centres undefined)	-17.38	-12.22

Measurements from “University of Dundee, Small-Polar-MMV Screening Library” (2021), ChEMBL document CHEMBL3988442.